# The whole screen tested about 390,000 compounds, of which about 610 (0.16%) were called active. The inconclusive results got no clear call from the source; some entries with a clear call stand among them for comparison. Calls follow the shape of the dose curve; as a rule, active = well fitted inhibition curve with a large enough effect; inconclusive = small, poorly fitted or top-dose-only effect, or effect the other way, or another doubt; inactive = no such curve, though single readings can be large or run the other way. Potencies of inconclusive entries are doubtful fits and often do not repeat.
# Test: Nrf2 qHTS screen for inhibitors: counterscreen for cytotoxicity
# Settings: A549 ARE-Fluc cells, CellTiter-Fluor viability, 18-24 h; activity change, negative = cytotoxicity: at 46 µM (top of the series)
# Procedure, shortened: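 A549 ARE_Fluc cells in 5% FBS OPTI-MEM were exposed to compounds in concentration-response for 18-24 h at 37 deg C. Viability was read by CellTiter-Fluor fluorescence (Ex 405/Em 525) after 30 min, before the luciferase read.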
# % is scaled to controls: 0 for no effect and ±100 for the full control effect; potency is read from the fitted curve at half-maximal effect.
SMILES,"activity change, negative = cytotoxicity",Potency
O=c1n(Cc2ccc(F)cc2)c2ccccc2c2nc(-c3ccccc3)nn12,inactive: -0.276%,–
COc1cccc2sc3ccc(C#Cc4ccc(N)cc4)cc3c(=O)c12,–,"inconclusive: 29.1 µM [falling, single point]"
Cc1ccc(CNC(=O)c2ccc(Cn3c(SCc4ccc(F)cc4)nc4cccnc43)cc2)o1,–,"inconclusive: 18.4 µM [falling, single point]"
CCN(CC)CCCNC(=O)c1cc(-c2ccc(Cl)c(Cl)c2)on1,inactive: -14.2%,–
Cc1nn(-c2ccccc2)c(/N=C/c2ccccc2O)c1-c1ccccc1,inactive: 1.39%,–
Nc1nc(-c2ccccc2)c(N=Nc2ccc(Cl)cc2)s1,–,"inconclusive: 16.4 µM [falling, partial curve, poor fit]"
CCOC1(/N=C(\C)NS(=O)(=O)c2ccc(Cl)cc2)C(C)=CC(=O)C=C1C,inactive: 1.83%,–
O=C(CN1CCC(n2cnc3cc(F)ccc32)CC1)Nc1ccccc1Br,–,"inconclusive: 25.9 µM [falling, partial curve, poor fit]"
COc1ccc(C=C2SC(=S)NC2=O)cc1,–,"inconclusive: 20.6 µM [falling, single point]"
CCOc1ncccc1C(=O)N1CCN(c2cccc(C)c2C)CC1,–,"inconclusive: 1.84 µM [falling, full curve]"
O=C(Nc1cccc([N+](=O)[O-])c1)NC1CCCCCCC1,–,"inconclusive: 20.6 µM [falling, single point]"
CCOc1ccc(NC(=O)CC2C(=O)N(c3ccccc3)C(=O)N2CCc2sccc2C)cc1 (centres undefined),–,"inconclusive: 20.6 µM [falling, partial curve, poor fit]"
Cn1nnnc1Sc1ncnc2scc(-c3cccc4c3sc3ccccc34)c12,–,"inconclusive: 20.6 µM [falling, partial curve, poor fit]"
COC(=O)c1cc2c(ccn2-c2ccc(F)cc2)n1CC(C)C,inactive: -1.35%,–
COc1ccc2c(CNC3CCCCCC3)c(C(=O)O)n(Cc3ccc(C)cc3)c2c1,–,"inconclusive: 18.4 µM [falling, partial curve, poor fit]"
O=C(NCc1cccnc1)/C(=C/c1ccc(-c2ccc(Cl)cc2)o1)S(=O)(=O)c1ccccc1,–,"inconclusive: 25.9 µM [falling, single point]"
FC(F)(F)c1nc2cc3nc4ccccc4[nH]c3cc2n1,–,"inconclusive: 29.1 µM [falling, single point]"
CC(=O)Nc1ccc(N2CCC(C)CC2)c([N+](=O)[O-])c1,–,"inconclusive: 0.0046 µM [falling, full curve, poor fit]"
CC(C)(C)OC(=O)NCCCCCNC(=O)c1[nH]cnc1C(=O)Nc1cccc(Cl)c1,–,"inconclusive: 16.4 µM [falling, partial curve, poor fit]"
COc1ccc(CCNC(=O)Cn2c(=O)n(CC3CCCO3)c(=O)c3ccccc32)cc1OC (centres undefined),–,"inconclusive: 1.3 µM [falling, full curve]"
COc1ccc2c(c1OC)C(=O)N1c3ccccc3C(=O)N(c3ccc(F)cc3)C21 (centres undefined),inactive: -21.8%,–
O=C(C[C@@H]1C/C=C/CC[C@H](Cc2ccc(F)cc2)C(=O)OC[C@@H](Cc2ccccc2)NC1=O)N[C@H](CO)Cc1ccccc1,–,"inconclusive: 18.4 µM [falling, single point]"

SMILES,"activity change, negative = cytotoxicity",Potency
CCCS(=O)(=O)c1nc(S(=O)(=O)c2ccc(C)cc2)c(NCCCOC(C)C)s1,inactive: 7.38%,–
Cc1ccc(C(=O)N/C(=C\c2ccccc2)C(=O)OCc2ccccc2)cc1,inactive: -16.7%,–
Cc1ccc(-n2c(SCC(=O)Nc3cccc(S(N)(=O)=O)c3)nc3ccccc32)cc1,–,"inconclusive: 29.1 µM [falling, single point]"
Cc1ccc2[nH]c(C(=O)N3CCOCC3)cc2c1,–,"inconclusive: 0.92 µM [activator, full curve, poor fit]"
COc1ccc(C2=Nn3c(nnc3-c3ccccc3Cl)SC2)cc1OCC1CC1,–,"inconclusive: 20.6 µM [falling, partial curve, poor fit]"
CCOc1ccc(CNC(=O)CCCn2c(=O)c3cccn3c3ccccc32)cc1,–,"inconclusive: 32.6 µM [falling, partial curve, poor fit]"
Cc1cc(OC(C)C(=O)Nc2cccnc2)ccc1Cl (centres undefined),inactive: 1.99%,–
O=C(Cn1cccc1)N1CCc2ccccc21,–,"inconclusive: 9.2 µM [activator, partial curve, poor fit]"
CCN1CCCC1CNS(=O)(=O)c1cc(Br)cc2c1N(C(=O)C1CC1)CC2 (centres undefined),–,"inconclusive: 5.8 µM [activator, single point]"
Cc1cccc2cc(CN(Cc3cccnc3)C(=O)c3ccccc3F)c(Cl)nc12,–,"inconclusive: 23.1 µM [falling, partial curve, poor fit]"
CC(=O)N1CCCc2cc(S(=O)(=O)N3CCC(C(=O)Nc4c(C)cccc4C)CC3)ccc21,inactive: 7.65%,–
CC1CCN(C(=O)CSc2nc3c(cnn3-c3ccccc3)c(=O)[nH]2)CC1,inactive: -14.3%,–
Cc1cccc(NC(=O)COc2ccc(Br)cc2/C=N/O)c1,inactive: 2.62%,–
COc1cccc(CNC(=O)C2CCN(Cc3cc4ccccc4n3Cc3ccccc3)CC2)c1OC,–,"inconclusive: 32.6 µM [falling, partial curve, poor fit]"
CCOC(=O)/C(=C\Nc1ccccc1C(F)(F)F)Sc1ncc(C(F)(F)F)cc1Cl,–,"inconclusive: 14.6 µM [activator, partial curve, poor fit]"
CSc1ccc(CN(C)C(=O)c2cccc(S(=O)(=O)N3CCN(Cc4ccccc4)CC3)c2)cc1,inactive: -15.6%,–
CCn1ccc2cc(S(=O)(=O)N3CCC(C(=O)NCC(C)c4ccccc4)CC3)ccc21 (centres undefined),inactive: -2.53%,–
Cc1ccc(-c2nnc(Nc3ccc4c(c3)OCO4)c3ccccc23)cc1S(=O)(=O)NCCO,inactive: 1.89%,–
CCOc1ccc(S(=O)(=O)NCc2ccc3c(c2)CCN3C(=O)c2ccc(C)cc2)cc1,inactive: -14.9%,–
CC(C)CC(=O)Nc1ccc2c(c1)OCO2,inactive: 0.334%,–
O=C(Nc1cccc2c1CCCC2)c1ccncc1,–,"inconclusive: 23.1 µM [activator, single point]"
CSc1ccccc1OCc1cc(C(=O)N2CCC[C@H]2C(N)=O)no1,inactive: -4.66%,–

# Looked up above:
# Under Potency, `Cc1ccc2[nH]c(C(=O)N3CCOCC3)cc2c1` is listed with inconclusive: 0.92 µM [activator, full curve, poor fit]
# Under Potency, `Nc1nc(-c2ccccc2)c(N=Nc2ccc(Cl)cc2)s1` is listed with inconclusive: 16.4 µM [falling, partial curve, poor fit]
# Under activity change, negative = cytotoxicity, `CCN(CC)CCCNC(=O)c1cc(-c2ccc(Cl)c(Cl)c2)on1` is listed with inactive: -14.2%
# Under activity change, negative = cytotoxicity, `CSc1ccccc1OCc1cc(C(=O)N2CCC[C@H]2C(N)=O)no1` is listed with inactive: -4.66%

# Reference: PubChem BioAssay AID504648 (National Center for Advancing Translational Sciences (NCATS), 2011)
